The source of these data is paper doi:10.1101/254052.

Sequences of proteins named here, by UniProt entry; tags and fusion partners are left off.
UniProt O89079: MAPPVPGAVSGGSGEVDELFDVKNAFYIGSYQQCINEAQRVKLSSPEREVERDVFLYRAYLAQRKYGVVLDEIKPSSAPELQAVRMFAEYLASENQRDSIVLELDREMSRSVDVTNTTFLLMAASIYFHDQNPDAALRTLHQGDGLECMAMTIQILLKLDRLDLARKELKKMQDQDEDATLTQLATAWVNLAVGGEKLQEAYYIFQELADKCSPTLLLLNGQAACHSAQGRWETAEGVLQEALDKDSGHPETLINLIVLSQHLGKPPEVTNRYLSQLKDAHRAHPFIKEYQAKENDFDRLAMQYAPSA

T1: α-COP subunit of recombinant murine coatomer (murine) (UniProt Q8CIE6)
T1 sequence: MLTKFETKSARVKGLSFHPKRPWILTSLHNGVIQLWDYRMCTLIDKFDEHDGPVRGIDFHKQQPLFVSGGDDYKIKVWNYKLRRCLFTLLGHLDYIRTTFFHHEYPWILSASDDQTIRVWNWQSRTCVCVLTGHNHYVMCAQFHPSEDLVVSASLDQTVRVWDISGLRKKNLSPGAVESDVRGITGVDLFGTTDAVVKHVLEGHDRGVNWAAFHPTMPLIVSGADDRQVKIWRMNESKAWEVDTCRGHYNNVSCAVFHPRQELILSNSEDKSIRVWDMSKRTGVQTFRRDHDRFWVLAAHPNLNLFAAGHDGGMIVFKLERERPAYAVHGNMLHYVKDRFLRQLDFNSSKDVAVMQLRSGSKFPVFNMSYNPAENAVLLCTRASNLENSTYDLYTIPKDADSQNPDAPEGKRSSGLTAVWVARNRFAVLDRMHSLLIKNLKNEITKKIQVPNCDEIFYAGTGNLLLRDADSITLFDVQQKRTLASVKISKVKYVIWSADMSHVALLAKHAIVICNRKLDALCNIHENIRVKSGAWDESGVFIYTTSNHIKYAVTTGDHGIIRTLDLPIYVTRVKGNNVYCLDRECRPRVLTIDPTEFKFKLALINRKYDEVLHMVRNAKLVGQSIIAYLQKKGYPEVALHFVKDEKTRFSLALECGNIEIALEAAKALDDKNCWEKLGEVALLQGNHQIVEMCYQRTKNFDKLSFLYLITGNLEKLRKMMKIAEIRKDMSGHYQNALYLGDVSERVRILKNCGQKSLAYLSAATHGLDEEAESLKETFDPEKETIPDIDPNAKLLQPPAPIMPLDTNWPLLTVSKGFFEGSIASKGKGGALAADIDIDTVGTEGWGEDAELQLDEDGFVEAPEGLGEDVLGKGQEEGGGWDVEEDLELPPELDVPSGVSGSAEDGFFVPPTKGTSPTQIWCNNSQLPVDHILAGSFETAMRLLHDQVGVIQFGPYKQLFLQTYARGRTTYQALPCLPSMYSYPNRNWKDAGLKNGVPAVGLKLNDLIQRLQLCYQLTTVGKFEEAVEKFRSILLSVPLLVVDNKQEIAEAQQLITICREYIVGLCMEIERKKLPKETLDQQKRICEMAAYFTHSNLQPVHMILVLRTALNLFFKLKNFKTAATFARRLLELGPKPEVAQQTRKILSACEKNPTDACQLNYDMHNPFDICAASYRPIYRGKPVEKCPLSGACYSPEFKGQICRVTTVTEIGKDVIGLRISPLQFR

B1: β-COP subunit of recombinant murine coatomer (protein, UniProt Q9JIF7 1-953)
chain: MTAAENVCYTLINVPMDSEPPSEISLKNDLEKGDVKSKTEALKKVIIMILNGEKLPGLLMTIIRFVLPLQDHTIKKLLLVFWEIVPKTTPDGRLLHEMILVCDAYRKDLQHPNEFIRGSTLRFLCKLKEAELLEPLMPAIRACLEHRHSYVRRNAVLAIYTIYRNFEHLIPDAPELIHDFLVNEKDASCKRNAFMMLIHADQDRALDYLSTCIDQVQTFGDILQLVIVELIYKVCHANPSERARFIRCIYNLLQSSSPAVKYEAAGTLVTLSSAPTAIKAAAQCYIDLIIKESDNNVKLIVLDRLVELKEHPAHERVLQDLVMDILRVLSTPDLEVRKKTLQLALDLVSSRNVEELVIVLKKEVIKTNNVSEHEDTDKYRQLLVRTLHSCSVRFPDMAANVIPVLMEFLSDSNEAAAADVLEFVREAIQRFDNLRMLIVEKMLEVFHAIKSVKIYRGALWILGEYCSTKEDIQSVMTEVRRSLGEIPIVESEIKKEAGELKPEEEITVGPVQKLVTEMGTYATQSALSSSRPTKKEEDRPPLRGFLLDGDFFVAASLATTLTKIALRYVALVQEKKKQNSFVAEAMLLMATILHLGKSSLPKKPITDDDVDRISLCLKVLSECSPLMNDIFNKECRQSLSQMLSAKLEEEKLSQKKESEKRNVTVQPDDPISFMQLTAKNEMNCKEDQFQLSLLAAMGNTQRKEAADPLASKLNKVTQLTGFSDPVYAEAYVHVNQYDIVLDVLVVNQTSDTLQNCTLELATLGDLKLVEKPSPLTLAPHDFANIKANVKVASTENGIIFGNIVYDVSGAASDRNCVVLSDIHIDIMDYIQPATCTDAEFRQMWAEFEWENKVTVNTNMTDLNDYLQHILKSTNMKCLTPEKALSGYCGFMAANLYARSIFGEDALANVSIEKPVHQGPDAAVTGHIRIRAKSQGMALSLGDKINLSQKKTSL
B2: ζ2-COP subunit of recombinant murine coatomer (protein, UniProt Q9JHH9 1-205)
chain: MQRPEAWPRPHPGEGASAAQAGGAAPPTRATEQREPSLYTIKAVFILDNDGRRLLAKYYDDTFPSVKEQMVFEKNVFNKTSRTESEIAFLGGMTIVYKSSIDIFLYVVGSSSENELMLMSVLACLFDSLSHILRKNVEKRWLLENMDGAFLVLDETVDGGVILESDPQQVIQKVNFRTDDSGLTEQSVAQVLQSAKEQIKWSLLK
B3: γ2-COP subunit of recombinant murine coatomer (protein, UniProt Q9QXK3 1-871)
chain: MIKKFDKKDEESGSGSNPFQHLEKSAVLQEARIFNETPINPRRCLHILTKILYLLNQGEHFGTMEATEAFFAMTRLFQSNDQTLRRMCYLTIKEMATISEDVIIVTSSLTKDMTGKEDVYRGPAIRALCRITDGTMLQAVERYMKQAIVDKVSSVASSALVSSLHMMKISYDVVKRWINEAQEAASSDNIMVQYHALGVLYHLRKNDRLAVSKMLNKFTKSGLKSQFAYCMLIRIASRLLKESEDGHESPLFDFIESCLRNKHEMVIYEAASAIIHLPNCTARELAPAVSVLQLFCSSPKPALRYAAVRTLNKVAMKHPSAVTACNLDLENLITDSNRSIATLAITTLLKTGSESSVDRLMKQISSFVSEISDEFKVVVVQAISALCHKYPRKHSVMMTFLSNMLRDDGGFEYKKAIVDCIISIVEENPESKEAGLAHLCEFIEDCEHTVLATKILHLLGKEGPRTPVPSKYIRFIFNRVVLENEAVRAAAVSALAKFGAQNESLLPSILVLLQRCMMDTDDEVRDRATFYLNVLQQRQMALNATYIFNGLTVSIPGMEKALHQYTLEPSEKPFDMKSIPLAMAPVFEQKSEITLVTPKPEKLAPSRQDIFQEQLAAIPEFMNLGPLFKSSEPVQLTEAETEYFVRCVKHMFTDHIVFQFDCTNTLNDQLLEKVTVQMEPSDSYEVLCCIPAPSLPYNQPGICYTLVRLPDEDPTAVAGTFSCTMKFTVRDCDPNTGVPDEDGYDDEYVLEDLEVTVSDHIQKILKPNFAAAWEEVGDAFEKEETFALSSTKTLEEAVNNIITFLGMQPCERSDKVPENKNSHSLYLAGVYRGGYDLLVRSRLALADGVTMQVTVRSKERTPVDVILASVG
B4: β'-COP subunit of recombinant murine coatomer (protein, UniProt O55029 1-905)
chain: MPLRLDIKRKLTARSDRVKSVDLHPTEPWMLASLYNGSVCVWNHETQTLVKTFEVCDLPVRAAKFVARKNWVVTGADDMQIRVFNYNTLERVHMFEAHSDYIRCIAVHPTQPFILTSSDDMLIKLWDWDKKWSCSQVFEGHTHYVMQIVINPKDNNQFASASLDRTIKVWQLGSSSPNFTLEGHEKGVNCIDYYSGGDKPYLISGADDRLVKIWDYQNKTCVQTLEGHAQNVSCASFHPELPIIITGSEDGTVRIWHSSTYRLESTLNYGMERVWCVASLRGSNNVALGYDEGSIIVKLGREEPAMSMDANGKIIWAKHSEVQQANLKAMGDTEIKDGERLPLAVKDMGSCEIYPQTIQHNPNGRFVVVCGDGEYIIYTAMALRNKSFGSAQEFAWAHDSSEYAIRESNSIVKIFKNFKEKKSFKPDFGAESIYGGFLLGVRSVNGLAFYDWENTELIRRIEIQPKHIFWSDSGELVCIATEESFFILKYLSEKVLAAQETHEGVTEDGIEDAFEVLGEIQEIVKTGLWVGDCFIYTSSVNRLNYYVGGEIVTIAHLDRTMYLLGYIPKDNRLYLGDKELNIVSYSLLVSVLEYQTAVMRRDFSMADKVLPTIPKEQRTRVAHFLEKQGFKQQALTVSTDPEHRFELALQLGELKIAYQLAVEAESEQKWKQLAELAISKCQFSLAQECLHHAQDYGGLLLLATASGNASMVNKLAEGAERDGKNNVAFMSYFLQGKLDACLELLIRTGRLPEAAFLARTYLPSQVSRVVKLWRENLSKVNQKAAESLADPTEYENLFPGLKEAFVVEEWVKETHADLWPAKQYPLVTPNEERNVMEEAKGFQPSRPTAQQEPDGKPASSPVIMASQTTHKEEKSLLELEVDLDNLELEDIDTTDINLDEDILDD
B5: γ1-COP subunit of recombinant murine coatomer (protein, UniProt Q9QZE5 1-874)
chain: MLKKFDKKDEESGGGSNPLQHLEKSAVLQEARVFNETPINPRKCAHILTKILYLINQGEHLGTTEATEAFFAMTKLFQSNDPTLRRMCYLTIKEMSCIAEDVIIVTSSLTKDMTGKEDNYRGPAVRALCQITDSTMLQAVERYMKQAIVDKVPSVSSSALVSSLHLLKCSFDVVKRWVNEAQEAASSDNIMVQYHALGLLYHVRKNDRLAVSKMISKFTRHGLKSPFAYCMMIRVASKQLEEEDGSRDSPLFDFIESCLRNKHEMVVYEAASAIVNLPGCSAKELAPAVSVLQLFCSSPKAALRYAAVRTLNKVAMKHPSAVTACNLDLENLVTDSNRSIATLAITTLLKTGSESSIDRLMKQISSFMSEISDEFKVVVVQAISALCQKYPRKHAVLMNFLFTMLREEGGFEYKRAIVDCIISIIEENSESKETGLSHLCEFIEDCEFTVLATRILHLLGQEGPKTNNPSKYIRFIYNRVVLEHEEVRAGAVSALAKFGAQNEEMLPSILVLLKRCVMDDDNEVRDRATFYLNVLEQKQKALNAGYILNGLTVSIPGLEKALQQYTLEPSEKPFDLKSVPLATTPMAEQRPESTATAAVKQPEKVAATRQEIFQEQLAAVPEFQGLGPLFKSSPEPVALTESETEYVIRCTKHTFSDHLVFQFDCTNTLNDQTLENVTVQMEPTEAYEVLSYVPARSLPYNQPGTCYTLVALPTEDPTAVACTFSCVMKFTVKDCDPNTGEIDEEGYEDEYVLEDLEVTVADHIQKVMKVNFEAAWDEVGDEFEKEETFTLSTIKTLEEAVGNIVKFLGMHPCERSDKVPENKNTHTLLLAGVFRGGHDILVRSRLLLLDTVTMQVTARSSEELPVDIILASVG
B6: ζ1-COP subunit of recombinant murine coatomer (protein, UniProt P61924 1-177)
chain: MEALILEPSLYTVKAILILDNDGDRLFAKYYDDTYPSVKEQKAFEKNIFNKTHRTDSEIALLEGLTVVYKSSIDLYFYVIGSSYENELMLMAVLNCLFDSLSQMLRKNVEKRALLENMEGLFLAVDEIVDGGVILESDPQQVVHRVALRGEDVPLTEQTVSQVLQSAKEQIKWSLLR

No constants are given. Whether binding was seen depends on the method and setting. Some results given as binding are weak or reduced against the parent protein; the word gives no strength.

The first assay concerns the target T1, α-COP subunit of recombinant murine coatomer (murine). In words: co-purification on Strep-Tactin Sepharose.
As to B1, the binding result is reported as “binds”.

B2: the binding result is reported as “binds”.

Take B3: the binding entry is reported as “binds”.

B4: the binding entry was “binds”.

Regarding B5, the binding entry is on record as “binds”.

In the case of B6, the binding entry was “binds”.

For another assay the target is unchanged. In words: co-purification on Strep-Tactin Sepharose. The source holds these as a separate data set.
“ε-COP subunit of recombinant murine coatomer (from UniProt O89079 1-308)”: the binding entry is on record as “binds”.
